Measured values published in publication PMC8042123.
No constants are given. Whether binding was seen depends on the method and setting. In cells and extracts the contact can be indirect. Sequences can lack the tags named with a protein.

By UniProt entry, the sequences of proteins in these tests, tags left out. Where a name states a change or a piece, a line headed by the entry shows the natural chain unless it says otherwise.
UniProt Q96524: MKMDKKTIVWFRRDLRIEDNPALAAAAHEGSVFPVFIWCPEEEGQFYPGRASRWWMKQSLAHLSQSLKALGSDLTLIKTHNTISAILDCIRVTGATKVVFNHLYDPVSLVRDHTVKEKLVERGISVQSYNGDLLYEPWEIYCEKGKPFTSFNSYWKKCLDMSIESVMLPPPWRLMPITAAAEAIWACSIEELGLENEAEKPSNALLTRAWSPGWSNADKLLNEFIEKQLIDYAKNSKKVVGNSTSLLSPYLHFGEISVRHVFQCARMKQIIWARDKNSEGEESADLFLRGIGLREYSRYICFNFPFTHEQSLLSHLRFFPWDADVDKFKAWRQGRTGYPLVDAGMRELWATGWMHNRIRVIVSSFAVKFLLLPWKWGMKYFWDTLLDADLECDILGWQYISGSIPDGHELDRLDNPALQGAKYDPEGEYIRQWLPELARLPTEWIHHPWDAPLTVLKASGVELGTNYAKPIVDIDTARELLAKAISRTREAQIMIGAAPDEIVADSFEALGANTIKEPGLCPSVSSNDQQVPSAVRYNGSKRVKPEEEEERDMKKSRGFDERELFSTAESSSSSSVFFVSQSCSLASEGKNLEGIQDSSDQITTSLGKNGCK

Legend:
Assay in all cases: co-IP; HEK293T cells co-transfected (with PPK1, PPK1^D267N or SPA1 as indicated), blue light 100 μmol m^-2 s^-1 for 2 h; lysis in 1% Brij buffer, Anti-FLAG M2 affinity gel 4 °C 2 h, elution with 3xFlag peptide, immunoblot
[1] = target: CRY2^P532L, Flag-tagged, phosphorylated (co-expressed with PPK1, blue light) (Arabidopsis thaliana) (UniProt Q96524)
[2] = target: CRY2^P532L, Flag-tagged, unphosphorylated (Arabidopsis thaliana) (UniProt Q96524)
[3] = target: Flag-CRY2^D387A (Arabidopsis thaliana) (UniProt Q96524)

Measured: binding

B1: Myc-SPA1 (protein, UniProt Q9SYX2 1-1029)
chain: MPVMERVAEETVATNNIQLKARVDDVPCNKLDARHNDMVIQSETANSDCPGSSAHRNVDLTKPPPPEEAAGAKLSVEELTLGNYRIVQGSNNTNVDSPRAGKFEHLYRLARGSAFRAGDGDLDSQPRDMDQMLSRIRQQLAGAPSERQNLKPFMSRRSDQNLEAFSERLRAAGENSIMNAPALISEGVQMKTPVSSSNFSQLLLKRAMKGKGVVGKNQETPPEFVSDQDLGSKEKKLDISKSPTPHDVLPLKSSPKGNGMVSHGDGNHSKSSIGISLREFLRSSYAKREKRHGLCLFRQLVELVDSAHSKRLFLLDLRPSLFTLVPSKKLRYIGNFGKNDLESDVDEDLNRRRPVVEESSSGGRDSKKRKMDLHLNSPGNQLQATSTGRPFKRKSPVIDLNMVDARNPDSCELQQQDYIKNLSVSSVSRKQSMSTWLEEQWYTCPEEINGEDIGEKSNIYALGVLLFELLCHCESGEMHAAMMADLRHRILPPTFLSKYPKEAGFCLWLLHPEPSSRPSARDILKSELICEDDSVKSTAAAEEISELLLHFLSSLEVQKKKKASKLLQDIQTLEDDIKEAERRYSSNVSLVRSHGAIEKRVQSSPLDEHCTTSSALFVPTANTDRLMSNIRQLEDAYFFMRSQINLSSSAATARSDKTLKDRDRCSENQNENQDMSTKGKSSDQLEVFFEGLCKFARYSKFETCGTIRSGDLLNSASVVCSLSFDPDEEHIAAAGISKKIKIFDFNAFMNESVGVHYPLVEMVNKSKLSCVCWNSYIKNYLASTDYDGVVQIWDAGTGQGFSQYTEHQKRAWSVDFSPSDPTKFVSGSDDCSVKLWSINEKRSLGTIWSPANVCCVQFSSYSNHLLAFGSADYKVYCYDLRYVKTPWCTLAGHEKAVSYVKFMDSETIVSASTDNSLKLWNLNKTNSSGLSPGACSLTYKGHTNQKNFVGLSVLDGYIACGSETNEVYSYYKSLPMPMTSYKFGSVDPISGNEYFDDNGQFVSSVCWRKKSNMLVAANSTGNMKLLKLV
no binding: all assays above
